Results are given in words; binding and its absence hold for the method and conditions named. In cells and extracts the contact can be indirect. Some binding calls cover weakened binding; strength is not graded here. Where a sequence is shown, tags or fusion partners need not be part of it.

From publication PMC11684626 come the findings set out here.

Experiment [1] concerns the target T1, HA-PEG10 gag-pol (Homo sapiens) (UniProt Q86TG7).
T1 sequence: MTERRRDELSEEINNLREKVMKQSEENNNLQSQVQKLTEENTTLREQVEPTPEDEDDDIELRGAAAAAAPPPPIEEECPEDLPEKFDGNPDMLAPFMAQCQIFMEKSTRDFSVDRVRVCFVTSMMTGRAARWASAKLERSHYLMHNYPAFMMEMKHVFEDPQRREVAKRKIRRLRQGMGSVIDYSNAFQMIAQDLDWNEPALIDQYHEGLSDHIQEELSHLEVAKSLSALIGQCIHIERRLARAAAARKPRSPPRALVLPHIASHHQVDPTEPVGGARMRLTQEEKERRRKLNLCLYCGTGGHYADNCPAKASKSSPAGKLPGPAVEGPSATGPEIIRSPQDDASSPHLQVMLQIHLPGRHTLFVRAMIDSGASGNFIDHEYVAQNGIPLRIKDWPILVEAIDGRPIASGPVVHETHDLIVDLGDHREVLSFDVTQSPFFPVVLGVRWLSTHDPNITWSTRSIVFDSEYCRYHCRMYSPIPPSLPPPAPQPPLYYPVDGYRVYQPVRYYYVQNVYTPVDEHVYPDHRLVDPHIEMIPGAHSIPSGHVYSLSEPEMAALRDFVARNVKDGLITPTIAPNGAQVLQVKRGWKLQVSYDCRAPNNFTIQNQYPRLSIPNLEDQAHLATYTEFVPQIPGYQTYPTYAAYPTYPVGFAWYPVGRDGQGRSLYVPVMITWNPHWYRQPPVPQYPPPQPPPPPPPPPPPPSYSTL
The experiment in a line: co-IP; co-immunoprecipitation of murine or human FLAG-RTL8 with HA-tagged human or murine PEG10; precipitating antibody, cell line and cross-linking not stated for this experiment.

The target of experiment [2] is T2, murine HA-tagged Peg10 (Mus musculus) (UniProt Q7TN75).
T2 sequence: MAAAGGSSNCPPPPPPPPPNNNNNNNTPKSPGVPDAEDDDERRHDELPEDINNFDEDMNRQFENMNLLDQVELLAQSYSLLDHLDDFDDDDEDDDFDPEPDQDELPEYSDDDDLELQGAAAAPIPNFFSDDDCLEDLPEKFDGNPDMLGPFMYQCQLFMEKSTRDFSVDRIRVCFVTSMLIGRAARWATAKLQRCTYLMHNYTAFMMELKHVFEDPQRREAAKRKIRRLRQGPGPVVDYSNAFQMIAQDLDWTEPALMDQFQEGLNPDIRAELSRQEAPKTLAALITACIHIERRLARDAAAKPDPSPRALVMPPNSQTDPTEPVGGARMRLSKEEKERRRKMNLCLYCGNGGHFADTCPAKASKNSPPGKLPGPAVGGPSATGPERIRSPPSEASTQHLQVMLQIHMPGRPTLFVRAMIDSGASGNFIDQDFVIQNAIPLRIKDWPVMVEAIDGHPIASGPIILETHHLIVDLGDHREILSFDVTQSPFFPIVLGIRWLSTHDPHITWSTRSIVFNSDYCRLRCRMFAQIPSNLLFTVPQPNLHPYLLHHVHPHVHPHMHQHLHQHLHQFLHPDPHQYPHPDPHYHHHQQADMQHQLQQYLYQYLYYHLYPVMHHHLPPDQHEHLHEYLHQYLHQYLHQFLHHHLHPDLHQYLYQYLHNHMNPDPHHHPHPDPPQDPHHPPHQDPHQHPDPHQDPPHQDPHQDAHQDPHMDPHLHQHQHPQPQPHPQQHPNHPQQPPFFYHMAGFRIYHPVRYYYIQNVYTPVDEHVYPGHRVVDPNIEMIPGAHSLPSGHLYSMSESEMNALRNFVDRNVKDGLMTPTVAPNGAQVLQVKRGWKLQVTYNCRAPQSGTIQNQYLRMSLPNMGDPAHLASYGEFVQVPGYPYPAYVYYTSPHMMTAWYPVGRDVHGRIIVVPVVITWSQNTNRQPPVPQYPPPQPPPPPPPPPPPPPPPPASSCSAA
The experiment is described as above.

B1: FLAG-MmRtl8b (protein, UniProt Q9D1F0 1-113)
chain: MEGQGKVKRPKAYMLRHNRRRRRRNPIPFPELFDGEMDKLPEFIVQTGSYMLVDDRTFDTDELKVTFLITRLKGRALQWVIPYIKIDSPLLNDYNGFLNEMKRVFGWEEDEDF
For B1, the binding entry in experiment [1] and in experiment [2] was “binds” in each case.
